According to publication PMC10721602:
Results are given in words; binding and its absence hold for the method and conditions named. Binding seen in cells or lysates may run through a third protein. These calls come from enrichment with a bait or labelling near it, and not all partners need be listed. Blank lines part the entries; values can stand above or below the binder they belong to.

Legend:
[1] = biological target: endogenous EGFR of A431 and NCI-H226 cells (human (endogenous in A431 and NCI-H226)) (UniProt P00533); assay: proximity labelling; EGFR-FabID on adherent A431 cells (endogenous EGFR), 37 °C, 2 h; DMSO, EGF, EGF+gefitinib or gefitinib alone; biotinylated peptides enriched with Tamavidin 2-REV, LC-MS/MS; AGIA-FabID as control
[2] = biological target: T1, endogenous EGFR of A431 and NCI-H226 cells (human (endogenous in A431 and NCI-H226)), P00533; assay: proximity labelling; EGFR-FabID on adherent NCI-H226 cells (endogenous EGFR), 37 °C, 3 h; DMSO, EGF, EGF+gefitinib or gefitinib alone; biotinylated peptides enriched with Tamavidin 2-REV, LC-MS/MS; AGIA-FabID as control; settings: remark: other sources report otherwise
[3] = biological target: T1, endogenous EGFR of A431 and NCI-H226 …; assay: proximity labelling; EGFR-FabID on adherent A431 cells (endogenous EGFR), 37 °C, 2 h; DMSO, EGF, EGF+gefitinib or gefitinib alone; biotinylated peptides enriched with Tamavidin 2-REV, LC-MS/MS; AGIA-FabID as control; settings: remark: other sources report otherwise

- binding [1]: binds
B1: DSG3 (protein, UniProt P32926 50-999)
chain: EWVKFAKPCREGEDNSKRNPIAKITSDYQATQKITYRISGVGIDQPPFGIFVVDKNTGDINITAIVDREETPSFLITCRALNAQGLDVEKPLILTVKILDINDNPPVFSQQIFMGEIEENSASNSLVMILNATDADEPNHLNSKIAFKIVSQEPAGTPMFLLSRNTGEVRTLTNSLDREQASSYRLVVSGADKDGEGLSTQCECNIKVKDVNDNFPMFRDSQYSARIEENILSSELLRFQVTDLDEEYTDNWLAVYFFTSGNEGNWFEIQTDPRTNEGILKVVKALDYEQLQSVKLSIAVKNKAEFHQSVISRYRVQSTPVTIQVINVREGIAFRPASKTFTVQKGISSKKLVDYILGTYQAIDEDTNKAASNVKYVMGRNDGGYLMIDSKTAEIKFVKNMNRDSTFIVNKTITAEVLAIDEYTGKTSTGTVYVRVPDFNDNCPTAVLEKDAVCSSSPSVVVSARTLNNRYTGPYTFALEDQPVKLPAVWSITTLNATSALLRAQEQIPPGVYHISLVLTDSQNNRCEMPRSLTLEVCQCDNRGICGTSYPTTSPGTRYGRPHSGRLGPAAIGLLLLGLLLLLLAPLLLLTCDCGAGSTGGVTGGFIPVPDGSEGTIHQWGIEGAHPEDKEITNICVPPVTANGADFMESSEVCTNTYARGTAVEGTSGMEMTTKLGAATESGGAAGFATGTVSGAASGFGAATGVGICSSGQSGTMRTRHSTGGTNKDYADGAISMNFLDSYFSQKAFACAEEDDGQEANDCLLIYDNEGADATGSPVGSVGCCSFIADDLDDSFLDSLGPKFKKLAEISLGVDGEGKEVQPPSKDSGYGIESCGHPIEVQQTGFVKCQTLSGSQGASALSTSGSVQPAVSIPDPLQHGNYLVTETYSASGSLVQPSTAGFDPLLTQNVIVTERVICPISSVPGNLAGPTQLRGSHTMLCTEDPCSRLI

- binding [2]: binds
- binding [3]: binds
B2: PTK7 (tyrosine receptor kinase 7), endogenous, Q13308 31-1070 (receptor)
chain: AIVFIKQPSSQDALQGRRALLRCEVEAPGPVHVYWLLDGAPVQDTERRFAQGSSLSFAAVDRLQDSGTFQCVARDDVTGEEARSANASFNIKWIEAGPVVLKHPASEAEIQPQTQVTLRCHIDGHPRPTYQWFRDGTPLSDGQSNHTVSSKERNLTLRPAGPEHSGLYSCCAHSAFGQACSSQNFTLSIADESFARVVLAPQDVVVARYEEAMFHCQFSAQPPPSLQWLFEDETPITNRSRPPHLRRATVFANGSLLLTQVRPRNAGIYRCIGQGQRGPPIILEATLHLAEIEDMPLFEPRVFTAGSEERVTCLPPKGLPEPSVWWEHAGVRLPTHGRVYQKGHELVLANIAESDAGVYTCHAANLAGQRRQDVNITVATVPSWLKKPQDSQLEEGKPGYLDCLTQATPKPTVVWYRNQMLISEDSRFEVFKNGTLRINSVEVYDGTWYRCMSSTPAGSIEAQARVQVLEKLKFTPPPQPQQCMEFDKEATVPCSATGREKPTIKWERADGSSLPEWVTDNAGTLHFARVTRDDAGNYTCIASNGPQGQIRAHVQLTVAVFITFKVEPERTTVYQGHTALLQCEAQGDPKPLIQWKGKDRILDPTKLGPRMHIFQNGSLVIHDVAPEDSGRYTCIAGNSCNIKHTEAPLYVVDKPVPEESEGPGSPPPYKMIQTIGLSVGAAVAYIIAVLGLMFYCKKRCKAKRLQKQPEGEEPEMECLNGGPLQNGQPSAEIQEEVALTSLGSGPAATNKRHSTSDKMHFPRSSLQPITTLGKSEFGEVFLAKAQGLEEGVAETLVLVKSLQSKDEQQQLDFRRELEMFGKLNHANVVRLLGLCREAEPHYMVLEYVDLGDLKQFLRISKSKDEKLKSQPLSTKQKVALCTQVALGMEHLSNNRFVHKDLAARNCLVSAQRQVKVSALGLSKDVYNSEYYHFRQAWVPLRWMSPEAILEGDFSTKSDVWAFGVLMWEVFTHGEMPHGGQADDEVLADLQAGKARLPQPEGCPSKLYRLMQRCWALSPKDRPSFSEIASALGDSTVDSKP
